Results as given in US20190111107A1, “METHODS FOR MODULATING INTESTINAL MICROBIOTA” (DEFENSIN THERAPEUTICS APS, priority 2016, published 2019).
Positions of bridges follow the written chain, without caps; N, C: chain ends. No end group written: not given here.

Test system: diet-induced obese mice
Test: Interventional treatment with defensins in diet-induced obese mice: weight, fat percentage, glucose homeostasis
Type: in vivo, C57/BL/6J mice
Settings: HFD fed groups, entire study period
Description: FIG. 1B. Schematic outline of the experimental set up for investigating the effects of mammalian alfa and/or beta defensins on mice metabolism. At week −1, the C57/BL/6J mice arrived. At week 0 feces was collected. During run-in between week 0 and week 12 the mice were fed a high fat diet. At week 12 the mice were clinically examined by magnetic resonance scan to estimate fat distribution, feces was collected and oral glucose tolerance test (OGTT) and glucose-stimulated insulin secretion (GSIS) performed. At week 13-0 the mice were divided in groups and cages with 4 mice percage and 3 cages per group. At week 0, 12 and 13-10, the microbiome of the faeces was analysed. At week 13-2, 13-4, 13-6, 13-8 and 13-10 the mice were scanned and blood glucose and insulin levels were measured. At week 13-9, insulin tolerance test (ITT) was conducted. At week 13-10 (termination), several analyses were conducted, in particular the mice were weighed and scanned, and plasma composition and microbiota composition of colon, cecum and small intestine were assessed. In addition, iWAT, eWAT and liver weight were measured.
Mice and diets. The experiment elucidates the effect of hBD-2 and HD5 in the treatment of metabolic syndrome (MetS) in diet-induced obese mice. A run-in period of 13 weeks where mice were fed a very HFD (60% energy from fat) preceded the intervention. […]

Substance	food intake
GIGDPVTCLKSGAICHPVFCPRRYKQIGTCGLPGTKCCKKP (disulfide 8-37, 15-30, 20-38 (inferred)) [hBD-2, human beta defensin 2]	equal food intake throughout the entire study period
human intestinal alpha defensin 5 (ATCYCRTGRCATRESLSGVCEISGRLYRLCCR; listed as Homo sapiens) [HD5]	same food intake during the study period
